# The other results are listed elsewhere or left out. Shown are side measurements of this screen, not its main read-out; they come without a call. The list favours compounds with an active or inconclusive main result. Words in brackets tell the shape of the fitted curve; partial curves, single points and poor fits give uncertain potencies.
# Test: Cell signaling CRE-BLA (Fsk stim)
# Details: CHO CRE-bla reporter (cAMP response element driving beta-lactamase), forskolin EC10, beta-lactamase ratio; measured here: 460 nm blue channel
# Outline: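 qHTS titration format; CRE-bla CHO reporter; stimulus EC10 NKH 477, a water-soluble forskolin. Read: CCF4 460/530 nm ratio. Potency expressed as AC50 for activators or inhibitors.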
row,Compound,AC50
1,COC(=O)c1ccc(NC(=O)CSc2nnc(CNc3ccc(F)cc3)n2C)cc1,"25.1 µM [falling, single point]"
2,Cn1c(=O)c2c(nc(NCCCO)n2C/C=C/c2ccccc2)n(C)c1=O,"20 µM [rising, single point]"
3,Cc1nc(S(=O)(=O)N(C)c2ccccc2)c(C#N)c(C)c1Cl,"1 µM [falling, partial curve]"
4,CCOc1cc(N2CCOCC2)c(OCC)cc1NS(=O)(=O)c1ccc(Cl)s1,"3.16 µM [rising, partial curve]"
5,COc1ccc(NC(=O)c2ccco2)cc1NC(=O)c1ccc(Br)o1,"12.6 µM [rising, partial curve]"
6,FC(F)(F)c1cccc(N2Cc3ccccc3C2)c1,"25.1 µM [rising, single point]"
7,C=CCN1CC(c2nc3ccccc3n2CCOc2ccccc2)CC1=O (stereo not drawn),"20 µM [rising, single point]"
8,CCCNc1nc2c(c(=O)n(C)c(=O)n2C)n1CCC(C)C,"12.6 µM [rising, single point]"
9,Cc1ccc(NC(=O)CSc2nc3nc(C)cc(C)c3c(=O)[nH]2)cc1,"3.16 µM [rising, full curve]"
10,COc1ccc(-c2nnc(-c3ccc(Br)o3)o2)cc1OC,"25.1 µM [rising, single point]"
11,CCOC(=O)NC(=O)CSc1nc2ccc(OCC)cc2[nH]1,"0.126 µM [falling, single point]"
12,CCOc1cc(C2c3c(oc4cc(C)c(Cl)cc4c3=O)C(=O)N2Cc2ccco2)ccc1O (stereo not drawn),"25.1 µM [rising, partial curve]"
13,COc1ccc(-c2cc(-c3c(O)c(OC)c4occc4c3OC)[nH]n2)cc1OC,"10 µM [rising, partial curve]"
14,CC(=O)c1ccc(N2CCN(C(=O)c3cc4c(=O)n(C)c5ccccc5c4n3C)CC2)cc1,"7.94 µM [rising, partial curve]"
15,CCCc1nc(S(=O)(=O)Cc2ccc(Cl)cc2Cl)n[nH]1,"1.26 µM [falling, full curve, poor fit]"
16,C#C[C@]1(O)CC[C@@H]2[C@H]3CCc4cc(OC)ccc4[C@@H]3CC[C@@]21C,"3.16 µM [rising, partial curve, poor fit]"
17,Cc1nc2cnc(Oc3ccccc3)nc2n(-c2ccccc2)c1=O,"25.1 µM [rising, partial curve]"
18,COc1cc(-c2nnc(SCC(=O)c3ccccc3)o2)cc(OC)c1OC,"7.94 µM [rising, partial curve]"
19,O=C(CSc1nnc(-c2ccco2)o1)NC1CCCCC1,"0.00316 µM [falling, full curve]"
20,CN(C)c1ncc2nc(-c3cccs3)c(=O)n(C3CC3)c2n1,"3.98 µM [rising, full curve]"
21,Cn1c(=O)c2c(nc(Br)n2C)n(C)c1=O,"0.631 µM [rising, full curve, poor fit]"
22,C=CCn1c(=O)n(CCOC)c(=O)c2sc3ccccc3c21,"2.51 µM [rising, full curve]"

# Retrieved by structure from the list above (2):
row,Compound,AC50
10,COc1ccc(-c2nnc(-c3ccc(Br)o3)o2)cc1OC,"25.1 µM [rising, single point]"
12,CCOc1cc(C2c3c(oc4cc(C)c(Cl)cc4c3=O)C(=O)N2Cc2ccco2)ccc1O (stereo not drawn),"25.1 µM [rising, partial curve]"

# Next part:

row,Compound,AC50
1,CCOC(=O)C(C(C)=O)c1c(Br)c(O)c(O)c2c(C(=O)c3ccc(C)cc3)coc12 (stereo not drawn),"15.8 µM [falling, partial curve]"
2,COC(=O)CNC(=O)c1ccc2c(c1)S(=O)(=O)c1ccccc1C2=O,"2.51 µM [rising, partial curve]"
3,ON1C(c2ccccc2C(F)(F)F)N(O)[C@H]2CCCC[C@H]21 (stereo partly drawn),"0.398 µM [falling, full curve, poor fit]"
4,COc1ccc2c(c1)C(=O)N(c1ccccc1OC)C(=O)C2(C)C,"5.01 µM [rising, full curve]"
5,CCn1cc(C(=O)N2CCN(C3CCCCC3)CC2)c2cc(OC)c(OC)cc2c1=O,"12.6 µM [rising, partial curve]"
6,Cn1c(=O)c(CCc2ccccc2)nc2cnc(Oc3ccccc3)nc21,"15.8 µM [rising, partial curve]"
7,CCn1cc(C(=O)NCCN(C)CCc2ccccc2)c(=O)c2cc(S(=O)(=O)N(C)C)ccc21,"25.1 µM [rising, single point]"
8,CCOc1cc(CN2CCN(c3ccc(C(C)=O)cc3)CC2)ccc1OC,"1 µM [falling, partial curve, poor fit]"
9,CCn1c2ccccc2c2nnc(SCC(=O)Nc3ncccn3)nc21,"12.6 µM [rising, partial curve]"
10,C/C=C/Cn1c(SCCCc2ccccc2)nc2c1c(=O)[nH]c(=O)n2C,"25.1 µM [falling, single point]"
11,CC1=C(/C=C/C(C)=C/C=C/C(C)=C/C=O)C(C)(C)CCC1,"15.8 µM [falling, partial curve]"
12,CCOc1ccc(N2CC(C(=O)NCc3ccc(F)cc3)CC2=O)cc1 (stereo not drawn),"5.01 µM [falling, partial curve]"
13,Cc1ccc(-n2nnc3c(=O)n(Cc4cccc(C)c4)cnc32)cc1,"10 µM [rising, partial curve]"
14,Cc1cc2ccccc2n1CCNC(=O)C(C)C,"12.6 µM [rising, partial curve]"
15,CCc1nnc(NC(=O)C2Cc3ccccc3CN2S(=O)(=O)c2cccs2)s1 (stereo not drawn),"0.02 µM [falling, full curve, poor fit]"
16,COC(=O)c1cc(C(=O)OC)cc(-n2c(C)cc(C(=O)CC#N)c2C)c1,"10 µM [rising, single point]"
17,c1cnc(Oc2ccc(-c3nnco3)cc2)cn1,"0.0251 µM [falling, full curve, poor fit]"
18,Cn1cccc1-c1nc2ccc(NC(=O)c3ccco3)cc2[nH]1,"6.31 µM [rising, partial curve]"
19,COc1ccc(NS(=O)(=O)c2ccc3oc(Nc4ccc5c(c4)OCCO5)nc3c2)cc1,"0.126 µM [falling, full curve]"
20,CCC(=O)n1nc(-c2ccc(OC)cc2)nc1N,"25.1 µM [rising, single point]"
21,O=C(CSc1nnc(-c2cnccn2)n1Cc1ccco1)c1ccc2ccccc2c1,"25.1 µM [rising, single point]"

# — PubChem BioAssay AID662 (National Center for Advancing Translational Sciences (NCATS), 2007)
